In PubChem BioAssay AID1259415 (National Center for Advancing Translational Sciences (NCATS), 2018):
Values joined by “and” are separate entries in the source; they are usually repeats but may differ in a detail not shown here. Equal values may be shown once. Screen size: about 410,000 compounds; about 18,000 (4.4%) were called active. Inconclusive means that the source gave no clear call. Such entries were picked first, then a sample of the others. Cut-off read from the data, not from the text of the source: active = activity change below about -60%; inconclusive = no clear call, values can overlap the other calls; inactive = above about -39%. Some structures have more than one record in an assay (separate samples or runs), and their calls can disagree.

assay: qHTS Assay for inhibitors of the human cytomegalovirus (HCMV); settings: HFF cells, HCMV-luciferase reporter, 72 h; at 57.5 µM; stronger effect = lower value
Outline: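 Human foreskin fibroblasts infected with luciferase-reporter HCMV at MOI 1 PFU/cell, compounds at two doses. Luciferase measured 72 h post infection; normalized to buffer-only basal and Salinomycin (10uM) controls.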
% is set by controls: 0 for no effect and ±100 for the full control effect.

Row | SMILES | activity change, negative = inhibition
1 | CC(=O)C1=C(c2ccccc2)N(C(C)=O)n2c(C)nnc2S1 | inconclusive: -56.1%
2 | CCc1nn2c(=O)c(S(=O)(=O)Nc3ccc(C(C)C)cc3)c(C)nc2s1 | active: -63.8%
3 | O=C1NC(=S)NC(=O)C1=Cc1cccn1-c1ccc(O)cc1 | active: -99.4%
4 | CN(C)S(=O)(=O)N1CCCC(C(=O)c2ccc(C(F)(F)F)cc2)C1 (stereo unspecified) | inconclusive: -55.8%
5 | COc1cccc(Cn2c(CNS(=O)(=O)c3ccc(Cl)s3)nc3cccnc32)c1 | inconclusive: -51.5%
6 | CC(=O)NCCC(=O)Nc1cc(S(=O)(=O)N2CCOCC2)ccc1N1CCCC1 | inactive: -14.1%
7 | Cc1ccc(-c2c[n+](CC(=O)c3cccs3)c3n2CCC3)cc1 | inconclusive: -47.8%
8 | CCc1ccc(-n2nc3ccc(NC(=O)COc4ccc(OC)cc4)cc3n2)cc1 | inactive: 51.3%
9 | CCOC(=O)C1=C(O)/C(=C/c2ccc(OCC(=O)O)c(OC)c2)SC1=Nc1ccc(OCC)cc1 | inconclusive: -49.4%
10 | COc1ccccc1C(=O)NCC(=O)OCC(=O)c1ccc(Cl)s1 | inactive: -27.8%
11 | CCOc1ccc(NC(=O)CSc2nc3ccsc3c(=O)n2CCCCCC(=O)O)cc1 | inactive: 17.8%
12 | CC(=O)N1CCCc2cc(S(=O)(=O)N3CCCC(C(=O)NCc4ccc(C)cc4)C3)ccc21 (stereo unspecified) | inactive: -25.8% and active: -72.4%
13 | OCCN(CCO)c1nc2ccccc2[nH]1 | inconclusive: -54.2%
14 | O=C(O)c1cc2ccc3ccccc3c2oc1=O | inconclusive: -55%
15 | Cc1nc2sccn2c(=O)c1S(=O)(=O)Nc1cc(C(F)(F)F)ccc1Cl | inactive: 3.38%
16 | Cc1ccc(C)c(N2CCN(c3ccncc3N)CC2)c1 | inconclusive: -50.8%
17 | CCOC(=O)/C(=C/C=C1\Sc2cc(C)c(C)cc2N1CC)C(C)=O | active: -69.5%
18 | COc1cccc(NC(=O)/C=C/c2ccccc2[N+](=O)[O-])c1 | inactive: 77.4%
19 | CCOC(=O)c1sc2ncnc(N3CCN(CC)CC3)c2c1C | inconclusive: -48.1%
20 | COc1ccccc1NS(=O)(=O)c1cc(NC(=O)CCNC(C)=O)ccc1N1CCCCC1 | inconclusive: -50.1%
21 | Cc1ccc(S(=O)(=O)N(C)Cc2ccc(C(=O)NN=C3C4CC5CC(C4)CC3C5)cc2)cc1 | inconclusive: -54.2%
22 | C[C@H](c1ccccc1)N1C[C@@H](COCc2ccccc2)Oc2cccc(N3CCCC3)c2S1(=O)=O | inconclusive: -59.8%

Row | SMILES | activity change, negative = inhibition
23 | O=[N+]([O-])/C=C1/NCCN1Cc1ccc(Cl)nc1 | inconclusive: -42.3%
24 | CCC(=O)N1CCc2cc(S(=O)(=O)N(C)c3ccc(OC)cc3OC)ccc21 | inactive: -23.2%
25 | COc1ccc(/C=C/c2cccc[n+]2C)c(O)c1 | inactive: -31.9%
26 | CS(=O)(=O)N1CCc2cc(C(=O)Nc3ccc(C(F)(F)F)cc3)ccc21 | active: -62.8%
27 | CCOCCCNc1c(CC)c(C)c(C#N)c2nc3ccccc3n12 | inconclusive: -44.3%
28 | COc1cnc(-c2ccccn2)nc1Oc1ccc(Cl)c2ccccc12 | active: -100%
29 | COC(=O)c1ccc(OCCOc2ccc(C(=O)OC)cc2)cc1 | inconclusive: -41.1%
30 | Cc1ccc(NC(=O)CSc2nccn2Cc2ccccc2)cc1C | inactive: 9.03%
31 | Cc1oc(-c2ccccc2)cc1C(=O)Nc1cccc(/C=C\C(=O)O)c1 | inconclusive: -54.7%
32 | CC1CC(C)CN(CCCNC(=O)CCC(=O)N2CCOc3ccccc32)C1 (stereo unspecified) | active: -64.6%
33 | COc1ccc(F)cc1S(=O)(=O)N1CCCCC1 | inconclusive: -45.4%
34 | Cc1nc(SCc2ccc(C(=O)O)cc2)nc2c1CCCC2 | active: -61.5%
35 | Cc1nc2ccccc2nc1OCc1ccc([N+](=O)[O-])cc1 | inconclusive: -46.3%
36 | CNC(=S)N(CCc1c(C)[nH]c2ccc(C)cc12)Cc1cc(OC)c(OC)c(OC)c1 | inactive: 7.21%
37 | CCCNC(=O)N1CCC2(CC1)OCCO2 | inconclusive: -45.8%
38 | COc1ccc(C2CC3(CC(C)(C)NC(=O)N3)Oc3cc(O)ccc32)cc1 (stereo unspecified) | inactive: 8.66%
39 | COc1ccc(Cl)cc1NC(=O)CSc1ccc2nnc(CCNS(=O)(=O)c3ccccc3)n2n1 | inactive: 1.53%
40 | NS(=O)(=O)c1cccc(NC(=O)CSc2nnc(-c3ccncc3)n2C2CC2)c1 | inconclusive: -42%
41 | COC(=O)c1sc2nc(SCC(=O)N(C)c3ccccc3)n(N)c(=O)c2c1C | inconclusive: -48.8%
42 | OC[C@@H]1CN(Cc2ccc(Cl)cc2)C[C@H](n2cnc3c(NC4CCCC4)ncnc32)O1 | inconclusive: -44.2%
43 | CC(C)OCc1cc(CN2CCN(c3cccc(C(F)(F)F)c3)CC2)c(O)c2ncccc12 | active: -98.4%
44 | Cc1c(Cl)cccc1NC(=O)CSc1nc(=O)n(Cc2ccco2)c2c1CCC2 | inconclusive: -40.3%

Row | SMILES | activity change, negative = inhibition
45 | O=C(CN1C(=O)/C(=C/c2cccc(Br)c2)SC1=S)N1CCCC1 | inconclusive: -58.7%
46 | CC(C)CC(C(=O)NC1CCCCC1)N(Cc1cccs1)C(=O)c1snc(C(N)=O)c1N (stereo unspecified) | inconclusive: -54.9%
47 | COc1cc2c(cc1OC)n(CC(=O)NC1CCCCCC1)n1c(C)cc(=O)nc21 | inconclusive: -43.1%
48 | Cc1cccnc1NC(=O)c1cccc(S(=O)(=O)N2CCN(c3ccc(F)cc3)CC2)c1 | inconclusive: -57.9%
49 | COc1ccc(-c2cc(C(=O)N/N=C/c3cc(OC)c(OC)cc3OC)c3ccccc3n2)cc1 | inactive: -11%
50 | Brc1ccc(-c2ccc(/C=N/Nc3nncc(-c4ccccc4)n3)o2)cc1 | inconclusive: -41.9%
51 | Cc1ccc2oc(C(=O)N(Cc3sccc3C)C3CCS(=O)(=O)C3)c(C)c2c1 (stereo unspecified) | inactive: 8.14%
52 | COc1ccccc1CNC(=O)C(=O)NCC(c1cccs1)S(=O)(=O)c1cccs1 (stereo unspecified) | inconclusive: -43.1%
53 | CN1C(c2ccc(F)cc2)=CS/C1=C(\C#N)c1nnc2n1-c1ccccc1SC2 | inconclusive: -53.9%
54 | CN(CC(O)COc1ccc(S(=O)(=O)N2CCOCC2)cc1)C1CCCCC1 (stereo unspecified) | inconclusive: -51.2%
55 | O=C1CN(S(=O)(=O)c2ccc(F)cc2)CCN1 | inconclusive: -40.3%
56 | Cc1cc(NC(=O)c2ccccc2)sc1C | inactive: 56.6%
57 | COc1ccc(S(=O)(=O)N(CC(=O)N2CCOCC2)Cc2ccccc2)cc1 | inconclusive: -40.6%
58 | Cc1cc(C)c2c(c1)/C(=C/C(=O)c1ccc(Br)s1)C(=O)N2 | active: -103%
59 | Cc1cc(C)c(NC(=O)c2sc3nc4c(cc3c2N)C(=O)CC(C)(C)C4)c(C)c1 | inconclusive: -41.3%
60 | CC(NC(=O)c1ccc(Cl)c(Cl)c1)c1ccc(-c2ccccc2)cc1 (stereo unspecified) | inconclusive: -45.6%
61 | OC[C@@H]1CN(Cc2ccncc2)C[C@H](n2cnc3c(NCc4ccncc4)ncnc32)O1 | inconclusive: -43.1%
62 | Fc1cccc(CCN2CCNC[C@@H]2CC2CCCCC2)c1 | inactive: 6.09%
63 | CCOc1ccccc1NC(=O)C1CCCN1S(=O)(=O)c1ccc2nc(-c3ccccc3)[nH]c2c1 (stereo unspecified) | inconclusive: -44.4%
64 | CN(C)CCC=C1c2ccccc2C=Cc2ccccc21 | inactive: 14.2%
65 | O=C(NCc1ccco1)c1ccc(Cn2c(SCc3ccccc3F)nc3cccnc32)cc1 | inconclusive: -51.3%
66 | O=S1(=O)c2cccc3cccc(c23)N1Cc1nnc(-c2ccccc2Br)o1 | inconclusive: -41.9%

Row | SMILES | activity change, negative = inhibition
67 | CCCc1nnc(SCC(=O)N2CCOCC2)n1CC1CCCO1 (stereo unspecified) | active: -68.4%
68 | Cc1c(C(=O)OCc2ccccc2)[nH]c2c1C(=O)CC(c1ccc(Cl)cc1)C2 (stereo unspecified) | active: -68.8%
69 | c1ccc(CCc2nn3c(-c4ccncc4)nnc3s2)cc1 | inconclusive: -50.9%
70 | Cc1ccc(OC(=O)CCC(=O)NC(C)c2ccccc2)cc1 (stereo unspecified) | inconclusive: -42.1%
71 | O=C(c1ccc(F)cc1)c1c[nH]c(C(=O)NCc2cccnc2)c1 | inconclusive: -56.3%
72 | CC(C)n1c(N)c(C#N)c2ccc([N+](=O)[O-])cc2c1=O | inconclusive: -47.6%
73 | COc1ccc(CN2C(=O)/C(=C/c3ccncc3)SC2=S)cc1 | active: -71.8%
74 | Cc1ccc(C(=O)Nc2cccc(S(=O)(=O)N3CCOCC3)c2)cc1[N+](=O)[O-] | inconclusive: -46.1%
75 | CC(=O)Nc1ccc(NC(=O)COC(=O)c2ccc([N+](=O)[O-])o2)cc1 | inconclusive: -45.7%
76 | Cc1nnc(SCc2nc3ccccc3s2)n1-c1ccccc1 | inactive: 63.3%
77 | CC(C)CN(CC(C)C)CC(O)Cn1cc(/C=C/C(=O)c2ccccc2)c2ccccc21 (stereo unspecified) | inactive: 23.4%
78 | O=C(NNS(=O)(=O)c1ccc(Cl)cc1)c1cccc(S(=O)(=O)N2CCOCC2)c1 | inconclusive: -41.9%
79 | CCN1CCN(CNC(=O)c2cnccn2)CC1 | inconclusive: -44.6%
80 | CNC(=O)NC(=O)C(OC(=O)c1cccc(S(=O)(=O)N2CCCCC2)c1)c1ccccc1 (stereo unspecified) | inconclusive: -41.2%
81 | O=C(OCC#CCSc1nnc(-c2ccc(Br)cc2)o1)c1cccs1 | inconclusive: -42%
82 | CNc1ccc(/C=C/C(=O)c2cccc3ccccc23)cc1[N+](=O)[O-] | inconclusive: -53.5%
83 | CC(C)(C)c1ccc(C(=O)NNC(=O)c2cccc(Br)c2)cc1 | active: -72.6%
84 | CC(CCCC(C)(C)O)NCc1cn[nH]c1-c1ccc2c(c1)OCO2 (stereo unspecified) | inconclusive: -41.5%
85 | Cc1ccc(C23CC4CC(CC(NC(=O)NCCN(C)C)(C4)C2)C3)cc1 | inactive: -5.83%
86 | Cc1ccc(C(=O)N2CCN(C34CC5CC(CC(C5)C3)C4)CC2)o1 | active: -82.5%

From entry 77 as far as 82, copied from above:
Row | SMILES | activity change, negative = inhibition
77 | CC(C)CN(CC(C)C)CC(O)Cn1cc(/C=C/C(=O)c2ccccc2)c2ccccc21 (stereo unspecified) | inactive: 23.4%
78 | O=C(NNS(=O)(=O)c1ccc(Cl)cc1)c1cccc(S(=O)(=O)N2CCOCC2)c1 | inconclusive: -41.9%
79 | CCN1CCN(CNC(=O)c2cnccn2)CC1 | inconclusive: -44.6%
80 | CNC(=O)NC(=O)C(OC(=O)c1cccc(S(=O)(=O)N2CCCCC2)c1)c1ccccc1 (stereo unspecified) | inconclusive: -41.2%
81 | O=C(OCC#CCSc1nnc(-c2ccc(Br)cc2)o1)c1cccs1 | inconclusive: -42%
82 | CNc1ccc(/C=C/C(=O)c2cccc3ccccc23)cc1[N+](=O)[O-] | inconclusive: -53.5%
